Assay results: patent US20240002458A1, “NOVEL VHL SMALL MOLECULE PROBES” (St. Jude Children's Research Hospital, priority 2020, published 2024)
The source holds more than one record for some entries. They are shown here; other results are not. The source may hold further records. The records of an entry do not match, cause unknown; they may come from other doses, times, organisms or constructs than stated.

Molecular target: GST-VCB protein complex (Homo sapiens, UniProt P40337)
Experiment: BODIPY FL VH032 (5)-mediated pVHL TR-FRET binding assay (competition)

## Cc1ncsc1-c1ccc(CNC(=O)[C@@H]2C[C@@H](O)CN2C(=O)[C@@H](NC(=O)OC(C)(C)C)C(C)(C)C)cc1 [BOC-VH032 (8)]
  sensitivity improvement of TR-FRET assay (Ki) over reported FAM-HIF-1α peptide (19-mer) FP assay (Kd): 3.09 fold and (3.09-fold)
